The other results are listed elsewhere or left out.
These targets were tested with c1cc(OCCN2CCCCC2)cc(-c2n[nH]c3ccc(-c4nnc[nH]4)cc23)c1 (assay: log2 fold change, soluble protein after heating vs DMSO (PISA); higher = thermal stabilisation; K562 cells, 10 uM, 30 min; active = over 0.2 and 3.5 SD of the protein, either way, in both replicates (recomputed)).
Procedure, shortened: (§1)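 K562 cells at 2×10^6 cells/mL were given 10 μM compound for 30 min. Aliquots then went through 3 min of heating across 48°C-58°C, were pooled, and were extracted in PBS with 0.5% NP-40 at 4°C, and the supernatant after 21,000xg for 90 min was quantified by TMTpro 16plex LC-MS/MS with channel sums equalised. Thermal stability relative to control samples, from duplicates, is given as log2 fold change.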

The chains behind the UniProt entries cited, without tags or fusion partners. Where a name states a change or a piece, a line headed by the entry shows the natural chain unless it says otherwise.
UniProt Q01650: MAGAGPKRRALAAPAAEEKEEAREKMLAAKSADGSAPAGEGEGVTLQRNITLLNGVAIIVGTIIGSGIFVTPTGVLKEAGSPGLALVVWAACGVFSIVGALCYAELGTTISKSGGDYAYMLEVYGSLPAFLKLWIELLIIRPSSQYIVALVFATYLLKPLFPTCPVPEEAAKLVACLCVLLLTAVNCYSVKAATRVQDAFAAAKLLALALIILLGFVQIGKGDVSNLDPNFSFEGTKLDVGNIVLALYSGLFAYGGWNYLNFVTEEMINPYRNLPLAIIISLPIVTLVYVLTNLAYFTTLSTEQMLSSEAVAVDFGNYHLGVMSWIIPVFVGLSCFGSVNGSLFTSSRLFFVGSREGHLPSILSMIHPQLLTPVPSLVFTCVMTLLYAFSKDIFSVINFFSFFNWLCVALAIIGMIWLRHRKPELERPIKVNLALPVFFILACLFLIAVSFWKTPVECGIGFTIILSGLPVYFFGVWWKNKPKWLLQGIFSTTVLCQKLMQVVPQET
UniProt Q02978: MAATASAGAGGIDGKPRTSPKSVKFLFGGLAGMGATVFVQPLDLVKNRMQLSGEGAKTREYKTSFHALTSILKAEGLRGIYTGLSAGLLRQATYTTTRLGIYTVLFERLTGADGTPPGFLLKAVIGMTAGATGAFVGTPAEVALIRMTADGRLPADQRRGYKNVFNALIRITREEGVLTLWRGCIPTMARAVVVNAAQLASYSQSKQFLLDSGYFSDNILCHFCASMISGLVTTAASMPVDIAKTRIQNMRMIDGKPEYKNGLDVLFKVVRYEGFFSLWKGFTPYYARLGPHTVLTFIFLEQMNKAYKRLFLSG
UniProt P11169: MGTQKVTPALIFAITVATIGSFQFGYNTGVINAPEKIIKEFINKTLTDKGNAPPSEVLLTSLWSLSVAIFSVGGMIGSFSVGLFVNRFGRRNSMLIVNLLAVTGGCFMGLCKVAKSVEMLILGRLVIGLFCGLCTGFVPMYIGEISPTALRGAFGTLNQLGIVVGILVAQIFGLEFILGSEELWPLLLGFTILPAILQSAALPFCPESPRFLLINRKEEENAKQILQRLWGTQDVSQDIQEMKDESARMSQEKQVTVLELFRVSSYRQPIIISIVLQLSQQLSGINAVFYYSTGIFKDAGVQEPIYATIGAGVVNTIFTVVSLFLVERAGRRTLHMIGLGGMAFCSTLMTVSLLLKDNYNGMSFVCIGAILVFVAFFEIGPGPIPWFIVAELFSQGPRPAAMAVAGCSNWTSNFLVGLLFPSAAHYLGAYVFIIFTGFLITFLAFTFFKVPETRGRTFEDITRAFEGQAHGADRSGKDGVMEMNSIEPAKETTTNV
UniProt P53985: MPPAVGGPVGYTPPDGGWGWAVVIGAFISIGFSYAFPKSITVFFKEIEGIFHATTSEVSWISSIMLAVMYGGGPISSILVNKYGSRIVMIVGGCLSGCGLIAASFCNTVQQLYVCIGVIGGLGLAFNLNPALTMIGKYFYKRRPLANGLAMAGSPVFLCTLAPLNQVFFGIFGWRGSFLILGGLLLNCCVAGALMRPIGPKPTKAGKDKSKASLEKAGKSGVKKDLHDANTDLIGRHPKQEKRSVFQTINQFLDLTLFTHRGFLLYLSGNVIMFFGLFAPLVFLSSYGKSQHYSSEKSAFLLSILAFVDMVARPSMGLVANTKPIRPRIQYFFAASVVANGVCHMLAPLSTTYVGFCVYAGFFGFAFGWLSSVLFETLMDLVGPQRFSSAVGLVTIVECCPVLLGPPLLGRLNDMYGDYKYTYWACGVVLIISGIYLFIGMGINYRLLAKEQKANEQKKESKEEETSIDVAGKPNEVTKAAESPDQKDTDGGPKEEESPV
UniProt Q99808: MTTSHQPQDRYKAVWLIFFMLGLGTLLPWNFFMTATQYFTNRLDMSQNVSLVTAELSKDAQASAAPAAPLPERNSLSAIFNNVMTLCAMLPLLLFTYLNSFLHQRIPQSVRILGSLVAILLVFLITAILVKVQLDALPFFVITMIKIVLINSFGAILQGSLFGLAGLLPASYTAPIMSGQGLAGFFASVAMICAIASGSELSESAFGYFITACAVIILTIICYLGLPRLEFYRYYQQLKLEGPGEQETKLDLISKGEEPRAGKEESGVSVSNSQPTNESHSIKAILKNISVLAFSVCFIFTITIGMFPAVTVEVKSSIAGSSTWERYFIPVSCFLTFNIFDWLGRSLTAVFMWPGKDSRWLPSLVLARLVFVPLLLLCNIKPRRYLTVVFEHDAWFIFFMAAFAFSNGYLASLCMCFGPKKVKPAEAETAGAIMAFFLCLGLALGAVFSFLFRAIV
UniProt Q9H0C2: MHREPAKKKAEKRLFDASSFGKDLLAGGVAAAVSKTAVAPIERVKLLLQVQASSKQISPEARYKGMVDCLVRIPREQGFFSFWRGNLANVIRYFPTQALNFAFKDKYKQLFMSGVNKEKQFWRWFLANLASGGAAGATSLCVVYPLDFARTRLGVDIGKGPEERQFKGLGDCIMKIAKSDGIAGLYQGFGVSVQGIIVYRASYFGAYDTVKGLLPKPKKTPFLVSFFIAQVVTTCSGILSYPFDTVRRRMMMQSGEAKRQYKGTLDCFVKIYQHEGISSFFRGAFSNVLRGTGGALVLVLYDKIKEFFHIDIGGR
UniProt Q92504: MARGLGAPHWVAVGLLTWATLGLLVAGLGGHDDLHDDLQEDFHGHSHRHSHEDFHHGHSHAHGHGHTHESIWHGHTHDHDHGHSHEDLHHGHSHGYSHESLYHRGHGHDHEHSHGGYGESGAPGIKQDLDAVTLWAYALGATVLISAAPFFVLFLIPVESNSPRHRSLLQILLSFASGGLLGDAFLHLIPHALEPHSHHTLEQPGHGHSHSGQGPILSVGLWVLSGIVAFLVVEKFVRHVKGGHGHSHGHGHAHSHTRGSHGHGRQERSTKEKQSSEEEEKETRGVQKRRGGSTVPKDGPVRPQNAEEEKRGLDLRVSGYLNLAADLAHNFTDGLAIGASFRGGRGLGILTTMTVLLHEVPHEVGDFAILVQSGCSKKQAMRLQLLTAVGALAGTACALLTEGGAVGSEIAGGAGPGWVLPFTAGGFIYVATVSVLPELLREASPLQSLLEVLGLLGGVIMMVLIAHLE
UniProt Q14542: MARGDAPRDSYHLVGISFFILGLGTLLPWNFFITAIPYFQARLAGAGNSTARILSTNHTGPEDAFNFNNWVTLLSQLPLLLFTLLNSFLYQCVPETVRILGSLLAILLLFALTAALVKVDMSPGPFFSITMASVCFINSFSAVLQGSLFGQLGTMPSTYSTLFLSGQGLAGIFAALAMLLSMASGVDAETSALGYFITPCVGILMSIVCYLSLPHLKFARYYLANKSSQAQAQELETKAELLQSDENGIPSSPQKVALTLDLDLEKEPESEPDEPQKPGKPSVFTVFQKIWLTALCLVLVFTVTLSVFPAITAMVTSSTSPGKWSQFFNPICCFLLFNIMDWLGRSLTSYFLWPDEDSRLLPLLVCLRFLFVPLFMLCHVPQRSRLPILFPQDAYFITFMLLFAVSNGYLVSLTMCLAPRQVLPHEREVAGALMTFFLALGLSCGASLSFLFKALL
UniProt L0R6Q1: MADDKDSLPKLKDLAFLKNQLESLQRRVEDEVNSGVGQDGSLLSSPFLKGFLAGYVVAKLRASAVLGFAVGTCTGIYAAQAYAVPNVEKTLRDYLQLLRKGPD
UniProt Q5BKX6: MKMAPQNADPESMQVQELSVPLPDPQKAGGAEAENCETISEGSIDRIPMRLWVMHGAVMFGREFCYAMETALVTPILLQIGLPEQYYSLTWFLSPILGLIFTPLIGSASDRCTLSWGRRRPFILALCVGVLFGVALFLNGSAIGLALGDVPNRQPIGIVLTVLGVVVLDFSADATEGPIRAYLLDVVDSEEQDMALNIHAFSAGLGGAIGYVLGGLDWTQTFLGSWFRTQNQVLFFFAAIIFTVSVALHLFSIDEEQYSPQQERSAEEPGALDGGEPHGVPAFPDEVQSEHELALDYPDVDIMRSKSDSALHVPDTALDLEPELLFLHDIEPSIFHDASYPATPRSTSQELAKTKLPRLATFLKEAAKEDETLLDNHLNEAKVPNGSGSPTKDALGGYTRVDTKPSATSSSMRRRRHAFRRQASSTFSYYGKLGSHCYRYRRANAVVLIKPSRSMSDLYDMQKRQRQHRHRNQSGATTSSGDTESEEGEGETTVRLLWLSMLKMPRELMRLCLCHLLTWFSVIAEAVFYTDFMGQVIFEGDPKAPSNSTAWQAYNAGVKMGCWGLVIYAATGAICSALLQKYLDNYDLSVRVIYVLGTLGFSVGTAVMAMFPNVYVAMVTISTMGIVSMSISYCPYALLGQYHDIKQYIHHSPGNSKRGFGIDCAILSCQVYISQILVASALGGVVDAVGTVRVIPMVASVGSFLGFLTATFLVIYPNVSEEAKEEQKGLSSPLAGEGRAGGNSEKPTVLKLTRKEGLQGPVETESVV
UniProt Q6KCM7: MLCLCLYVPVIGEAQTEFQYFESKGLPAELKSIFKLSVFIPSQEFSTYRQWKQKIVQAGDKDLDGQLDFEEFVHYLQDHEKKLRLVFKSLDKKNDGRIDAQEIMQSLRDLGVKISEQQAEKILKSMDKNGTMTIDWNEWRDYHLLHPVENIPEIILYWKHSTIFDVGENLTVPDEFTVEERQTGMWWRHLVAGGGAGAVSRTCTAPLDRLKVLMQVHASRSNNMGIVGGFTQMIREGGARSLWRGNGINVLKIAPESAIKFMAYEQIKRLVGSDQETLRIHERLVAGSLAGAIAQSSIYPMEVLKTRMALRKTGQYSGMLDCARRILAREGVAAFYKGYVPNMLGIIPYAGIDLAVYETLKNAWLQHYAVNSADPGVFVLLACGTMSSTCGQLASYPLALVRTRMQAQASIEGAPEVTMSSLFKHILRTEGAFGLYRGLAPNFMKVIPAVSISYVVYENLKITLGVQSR
UniProt Q9NYZ2: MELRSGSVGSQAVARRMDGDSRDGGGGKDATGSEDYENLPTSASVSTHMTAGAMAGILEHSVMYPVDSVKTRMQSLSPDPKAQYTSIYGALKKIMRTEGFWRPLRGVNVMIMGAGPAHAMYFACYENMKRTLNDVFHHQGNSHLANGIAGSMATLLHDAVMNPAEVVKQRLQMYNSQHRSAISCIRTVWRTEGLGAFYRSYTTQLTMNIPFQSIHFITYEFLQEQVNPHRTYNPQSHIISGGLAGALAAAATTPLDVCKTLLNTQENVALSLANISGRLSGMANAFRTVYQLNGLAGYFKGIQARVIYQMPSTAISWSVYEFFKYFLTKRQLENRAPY
UniProt Q9Y6M5: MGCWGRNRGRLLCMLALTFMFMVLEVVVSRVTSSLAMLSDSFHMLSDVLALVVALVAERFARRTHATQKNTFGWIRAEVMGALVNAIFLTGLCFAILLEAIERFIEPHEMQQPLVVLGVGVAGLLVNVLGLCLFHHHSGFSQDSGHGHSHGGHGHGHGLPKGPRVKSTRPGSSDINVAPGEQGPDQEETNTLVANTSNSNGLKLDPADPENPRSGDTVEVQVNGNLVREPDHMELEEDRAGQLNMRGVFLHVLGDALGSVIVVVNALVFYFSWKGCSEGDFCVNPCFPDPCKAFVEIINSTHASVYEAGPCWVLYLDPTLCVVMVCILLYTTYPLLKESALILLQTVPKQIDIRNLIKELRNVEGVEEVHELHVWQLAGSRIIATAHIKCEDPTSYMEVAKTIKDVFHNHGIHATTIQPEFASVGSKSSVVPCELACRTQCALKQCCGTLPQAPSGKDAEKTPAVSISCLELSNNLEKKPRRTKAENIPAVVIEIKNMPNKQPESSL
UniProt Q00325: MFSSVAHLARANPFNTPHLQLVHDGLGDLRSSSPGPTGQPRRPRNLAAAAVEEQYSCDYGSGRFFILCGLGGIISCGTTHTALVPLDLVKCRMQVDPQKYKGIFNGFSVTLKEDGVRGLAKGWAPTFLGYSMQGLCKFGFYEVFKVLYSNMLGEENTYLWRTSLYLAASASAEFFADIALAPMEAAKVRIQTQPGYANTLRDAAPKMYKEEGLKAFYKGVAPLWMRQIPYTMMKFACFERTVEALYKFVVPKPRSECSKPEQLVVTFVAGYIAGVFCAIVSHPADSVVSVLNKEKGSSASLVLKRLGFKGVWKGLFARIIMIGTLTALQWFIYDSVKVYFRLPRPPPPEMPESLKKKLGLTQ
UniProt Q9H936: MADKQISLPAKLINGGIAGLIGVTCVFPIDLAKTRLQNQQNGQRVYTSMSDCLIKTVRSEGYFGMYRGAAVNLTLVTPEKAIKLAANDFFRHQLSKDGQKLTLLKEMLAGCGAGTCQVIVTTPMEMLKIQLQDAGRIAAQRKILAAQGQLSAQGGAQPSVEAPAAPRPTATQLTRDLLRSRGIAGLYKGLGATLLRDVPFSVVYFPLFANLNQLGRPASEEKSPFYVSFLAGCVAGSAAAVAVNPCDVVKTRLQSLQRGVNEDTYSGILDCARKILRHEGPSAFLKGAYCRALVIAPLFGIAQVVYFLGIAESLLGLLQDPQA

log2 fold change, inactive:
SLC7A5 (UniProt Q01650) -0.094
SLC26A6 (UniProt Q9BXS9) -0.07
SLC25A11 (UniProt Q02978) -0.038
SLC2A3 (UniProt P11169) -0.063
SLC25A44 (UniProt Q96H78) -0.05
SLC16A1 (UniProt P53985) -0.149
SLC25A5 (UniProt P05141) 0.012
SLC29A1 isoform 2 (UniProt Q99808) -0.067
SLC25A51 (UniProt Q9H1U9) -0.05
SLC38A10 (UniProt Q9HBR0) -0.02
SLC25A31 (UniProt Q9H0C2) -0.015
SLC25A40 (UniProt Q8TBP6) 0.003
SLC39A8 (UniProt Q9C0K1) -0.073
SLC39A7 (UniProt Q92504) -0.041
SLC29A2 (UniProt Q14542) -0.028
SLC39A14 (UniProt Q15043) 0.03
SLC35A4 (UniProt L0R6Q1) -0.038

Each target was assayed with c1cn2cc(-c3ccc4cn[nH]c4c3)nc(Nc3ccc(N4CCOCC4)cc3)c2n1 [entospletinib] in the same assay as above.
Procedure, shortened: as §1

log2 fold change, inactive:
SLC39A10 (UniProt Q9ULF5) 0.015
SLC45A4 isoform 3 (UniProt Q5BKX6) 0.055
SLC3A2 isoform 3 (UniProt P08195) 0.014
SLC20A2 (UniProt Q08357) 0.031
SLC25A25 isoform 3 (UniProt Q6KCM7) -0.012
SLC39A6 (UniProt Q13433) -0.095
SLC30A5 (UniProt Q8TAD4) -0.034
SLC6A8 (UniProt P48029) -0.006
SLC25A1 (UniProt P53007) -0.016
SLC25A37 (UniProt Q9NYZ2) 0.053
SLC4A1AP (UniProt Q9BWU0) -0.036
SLC30A1 (UniProt Q9Y6M5) 0.019
SLC20A1 (UniProt Q8WUM9) 0.027
SLC5A6 (UniProt Q9Y289) -0.048
SLC35B2 (UniProt Q8TB61) 0.059
SLC35A2 isoform 4 (UniProt P78381) -0.011
SLC25A24 (UniProt Q6NUK1) 0.024
SLC1A4 (UniProt P43007) -0.024
SLC25A16 (UniProt P16260) 0.048
SLC25A3 isoform 2 (UniProt Q00325) -0.003
SLC25A22 (UniProt Q9H936) 0
SLC7A5 (UniProt Q01650) -0.006
SLC26A6 (UniProt Q9BXS9) 0.045
SLC25A11 (UniProt Q02978) 0.018
SLC2A3 (UniProt P11169) -0.052
SLC25A44 (UniProt Q96H78) -0.08
SLC16A1 (UniProt P53985) 0.041
SLC25A5 (UniProt P05141) 0.04
SLC29A1 isoform 2 (UniProt Q99808) -0.001
SLC25A51 (UniProt Q9H1U9) 0.035
SLC38A10 (UniProt Q9HBR0) -0.03
SLC25A31 (UniProt Q9H0C2) -0.015
SLC25A40 (UniProt Q8TBP6) 0.012
SLC39A8 (UniProt Q9C0K1) 0.091
SLC39A7 (UniProt Q92504) 0.005
SLC29A2 (UniProt Q14542) -0.015
SLC39A14 (UniProt Q15043) 0.007
SLC35A4 (UniProt L0R6Q1) 0.079

Reference: the supplement of paper PMC10849652
